Measurements reported in PubChem BioAssay AID652272 (Drosophila RNAi Screening Center, 2013)

Aim: 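Finding fly genes that regulate Hedgehog signal transduction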 (primary screen)
Cell system: Drosophila clone 8 (Cl8) cells
Reagents: long dsRNA against Drosophila genes
Read-out: 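Firefly light from a Hedgehog-responsive ptc promoter reporter and Renilla reference light, both read on a plate reader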
Direction: firefly Hh reporter signal: higher = more ptc reporter light; Renilla reference signal: higher = more Renilla control light
Active means: 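Hit when the z-score averaged over two replicates is under -2 or over +3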
Meaning of the calls: active = hit: reporter lowered or raised; inactive = not a hit
The deposit covers about 21,000 reagents; below is a random part of those with a known target gene and a result. In the full data, 503 (2.4%) got an active call. 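Raw plate light values, not normalised; calls rest on replicate z-scores that were not deposited; hits include reporter decreases as well as increases.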 Unmarked entries are inactive. A plus sign joins genes that one reagent is predicted to hit. Reagent sequences are not shown. Not given: the amount of reagent, the time to read-out.

Target gene	amplicon	firefly Hh reporter signal, replicate 1	firefly Hh reporter signal, replicate 2	firefly Hh reporter signal, replicate 3	Renilla reference signal, replicate 1	Renilla reference signal, replicate 2
Pop5 (POP5 ribonuclease P/MRP subunit)	DRSC10074	1.38e5			246	2229
Gnptab	DRSC07057	86483	65148		2059	4461
Oatp58Da (Organic anion transporting polypeptide 58Da)	DRSC04365	1.49e5	65882		3593	3290
Act57B (Actin 57B)	DRSC04042	74934	28906		2813	1253
CG12948	DRSC14576	75312	1.17e5		2162	2903
CG14450	DRSC11707	68757	88915		1986	2278
snoRNA:U31:54Ec + snoRNA:snR38:54Eb + snoRNA:U27:54Eb + 8 more	DRSC06458	1.13e5	65242		3232	4296
CG14232	DRSC19588	87952	1.01e5		2695	3173
betaNACtes1 (Nascent-associated complex beta-subunit-like, testis 1)	DRSC19534	1.21e5	2.81e5		3031	10744
Hsf (Heat shock factor)	DRSC07443	1.56e5	1.10e5		5603	3747
CG13742 + CNT1	DRSC06413	77340	58376		2056	4882
Prtl99C (Protamine-like 99C)	DRSC15049	70214	99600		1826	4802
Zasp67 (Z band alternatively spliced PDZ-motif protein 67)	DRSC10169	46295	65730	76379	6054	4976
Nt5b (5' nucleotidase B)	DRSC19976	1.91e5	94601		4278	2425
Nt5b (5' nucleotidase B)	DRSC19977	99003	3.50e5		2580	13796
Nt5b (5' nucleotidase B)	DRSC19978	80739	2.78e5		2371	10192
hth (homothorax)	DRSC16967	1.15e5	93063		4273	3024
CG4496	DRSC02753	1.38e5	56688		3728	5826
nkt (noktochor)	DRSC10144	59866	53297	77005	5417	5746
mab-21	DRSC18791	99094	2.63e5		2344	11328
CG3808	DRSC10377	68950	1.38e5		2019	3671
CG2116	DRSC18206	1.09e5	75670		2522	2092
CG14186	DRSC10185	69191	85168		2576	2928
Rgk3 (Rad, Gem/Kir family member 3)	DRSC04250	1.29e5	6.28e5	80932	3251	34807
Rgk3 (Rad, Gem/Kir family member 3)	DRSC04251	1.39e5	89346		3437	8451
Rgk3 (Rad, Gem/Kir family member 3)	DRSC04254	87030	57493		2304	6007
Rgk3 (Rad, Gem/Kir family member 3)	DRSC04255	1.05e5	58265		2781	5776
CG17110	DRSC15173	5.97e5	1.17e5		30203	3458
PGAP1 (Post-GPI attachment to proteins 1)	DRSC18286	99479	71875		2473	2070
Dnah3 (dynein, axonemal, heavy chain 3)	DRSC08130	1.39e5	3.48e5		4117	13954
Dnah3 (dynein, axonemal, heavy chain 3)	DRSC08513	39691	72605		4341	5152
CG2898	DRSC18238	1.30e5	4.18e5		4512	14370
CG10053	DRSC12502	1.44e5	1.09e5		4845	3514
Sox102F	DRSC17204	1.15e5	1.18e5		2432	4041
CG15357	DRSC00387	73435	1.00e5		1712	2195
CG7135	DRSC20026	62768	1.64e5		1448	7270
zen2 (zerknullt-related)	DRSC12633	67947	83602		3396	2704
CG14671	DRSC12257	95632	1.44e5		3344	4064
CG31221	DRSC14335	6.19e5	96860		32602	2761
CG31221	DRSC16217	5.56e5	91403		33488	2536
CG12617	DRSC02176	69699	43175		2192	4924
Orc4 (Origin recognition complex subunit 4)	DRSC04634	75056	19385		3386	608
Esyt2 (Extended synaptotagmin-like protein 2)	DRSC16082	1.02e5	83097		4817	3724
CG32428	DRSC11697	68624	47553		2307	1490
CG32428	DRSC11768	1.18e5	1.04e5		4740	3065
GluRIIA (Glutamate receptor IIA)	DRSC03334	85840	39302		1489	4480
so (sine oculis)	DRSC07693	2.19e5 (active)	2.14e5	1.36e5	16758	7057
Noa36	DRSC16761	1.44e5	1.16e5		3307	2672
CG11313	DRSC14295	62757	1.23e5		1194	2988
Wnt2 (Wnt oncogene analog 2)	DRSC05160	1.25e5	2.92e5		3031	10912
Wnt2 (Wnt oncogene analog 2)	DRSC07574	1.14e5	56195		2964	4172
Grip71	DRSC02042	67334	43677		1003	4394
CG13295	DRSC09969	77072	63136		6564	4412
CG11437	DRSC11659	1.28e5	1.61e5		3760	2643
CG17732	DRSC10283	1.20e5	1.36e5		4466	3965
fs(1)Ya (female sterile (1) Young arrest)	DRSC18776	81858	86728		1684	2651
Desi (Desiccate)	DRSC14909	81584	1.37e5		2349	3223

As entered above.
Under “Renilla reference signal, replicate 1”, Rgk3 (Rad, Gem/Kir family member 3) [DRSC04251] shows 3437
Under “Renilla reference signal, replicate 2”, betaNACtes1 (Nascent-associated complex beta-subunit-like, testis 1) [DRSC19534] is entered as 10744
Under “firefly Hh reporter signal, replicate 2”, CG10053 [DRSC12502] is entered as 1.09e5
Under “firefly Hh reporter signal, replicate 2”, fs(1)Ya (female sterile (1) Young arrest) [DRSC18776] has 86728
